This is an account of results in patent US20240374727A1.

No constants are given. Whether binding was seen depends on the method and setting. Some results given as binding are weak or reduced against the parent protein; the word gives no strength.

Experiment [1] deals with T1, human C-C Chemokine receptor 9 (CCR9) (human) (UniProt P51686).
T1 sequence: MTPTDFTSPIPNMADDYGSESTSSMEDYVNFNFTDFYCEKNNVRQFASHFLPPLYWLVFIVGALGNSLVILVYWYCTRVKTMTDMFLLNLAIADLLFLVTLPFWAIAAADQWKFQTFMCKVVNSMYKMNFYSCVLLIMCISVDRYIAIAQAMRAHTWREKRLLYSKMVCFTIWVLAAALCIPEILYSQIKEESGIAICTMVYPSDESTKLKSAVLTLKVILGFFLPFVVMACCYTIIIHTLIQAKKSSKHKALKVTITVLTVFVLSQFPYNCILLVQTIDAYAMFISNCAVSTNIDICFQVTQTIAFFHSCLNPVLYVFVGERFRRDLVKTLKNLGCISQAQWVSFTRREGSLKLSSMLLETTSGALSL
The experiment is described as follows: flow cytometry on wild-type P12-Ichikawa versus CCR9 knockout cells.

The target in experiment [2] is T1, human C-C Chemokine receptor 9 (CCR9) (human). Kind of experiment: flow cytometry on P12-Ichikawa cells. Background: Flow cytometry measures light scatter and fluorescence of single cells or particles in a stream.

B1: 9G7 single chain variant fragment (scFv) (scFv)
scFv: QVQLKESGPGLVQPSQTLSLTCTVSGFSVASYDMHWVRLPPGKGLEWMGIIWANGNTHYNSGLKSRLSISRDTSKSQVFLKMNSLQTEDTAIYFCTRGGFAYWGQGTLVTVSASGGGGSGGGGSGGGGSDVVMTQTPVSLSVSLGGQVSISCRSSQSLVHNNGNTYLSWYLQKPGQSPQLLIYKVSNRFSGVSDRFSGSGSGTDFTLKISRVEPDDLGVYYCGQGTQYPTFGGGTKLELK
Consider B1, for which the binding entry in experiment [1] and in experiment [2] was “binds” throughout.
